Measurements reported in PubChem BioAssay AID1259261 (Sanger Institute, 2017).
Purpose: 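siRNA screen across the kinome for kinases that are essential and partners synergising with drugs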 (primary screen). Cells: HCC2998 human colorectal cancer cells. Reagent: siRNA pool against human genes. Treatment: anchor drugs BYL719 1 µM, cetuximab 5 µg/ml or trametinib 10 nM, each compared with DMSO vehicle. Detection: 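Viability as fraction of non-targeting control plus robust z-score without drug; synergy scores compare knock-down plus drug against each alone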. Scale: viability z-score, knock-down alone: higher = more viable cells than controls; viability fraction, knock-down alone: higher = more viable cells. Active means: 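Essential when the siRNA-alone viability robust z-score is below -3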. Calls: active = essential; inactive = no change.
This is one part, drawn at random, of 794 deposited reagents. 10 of all reagents (1.3%) were called active. 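Calls reflect knock-down alone without drug; synergy scores with BYL719, cetuximab or trametinib do not affect calls.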 A number with no mark means an inactive call. No viability above 1 is reported: the scale is capped. Not all columns of the deposit are shown. The record does not give: the amount of reagent, the time to read-out.

PMVK
- viability z-score, knock-down alone: 0.651
- viability fraction, knock-down alone: 0.93

DGUOK
- viability z-score, knock-down alone: -1.64
- viability fraction, knock-down alone: 0.643

STK35
- viability z-score, knock-down alone: -0.216
- viability fraction, knock-down alone: 0.822

PRKD2
- viability z-score, knock-down alone: 0.733
- viability fraction, knock-down alone: 0.941

PFKFB2
- viability z-score, knock-down alone: 0.208
- viability fraction, knock-down alone: 0.875

DLG2
- viability z-score, knock-down alone: 0.523
- viability fraction, knock-down alone: 0.914

CSNK1G3
- viability z-score, knock-down alone: 0.653
- viability fraction, knock-down alone: 0.931

PDXK
- viability z-score, knock-down alone: 1.21
- viability fraction, knock-down alone: 1

NME2
- viability z-score, knock-down alone: 0.826
- viability fraction, knock-down alone: 0.952

PFKFB1
- viability z-score, knock-down alone: -1.35
- viability fraction, knock-down alone: 0.68

CDK2
- viability z-score, knock-down alone: 0.567
- viability fraction, knock-down alone: 0.92

SGK2
- viability z-score, knock-down alone: 0.0836
- viability fraction, knock-down alone: 0.859

DDR2
- viability z-score, knock-down alone: 0.168
- viability fraction, knock-down alone: 0.87

ADCK2
- viability z-score, knock-down alone: -0.2
- viability fraction, knock-down alone: 0.824

MAST2
- viability z-score, knock-down alone: 0.772
- viability fraction, knock-down alone: 0.946

BUB1B
- viability z-score, knock-down alone: -1.7
- viability fraction, knock-down alone: 0.636

SNRK
- viability z-score, knock-down alone: 0.1
- viability fraction, knock-down alone: 0.861

PRKAA2
- viability z-score, knock-down alone: 0.591
- viability fraction, knock-down alone: 0.923

MGA
- viability z-score, knock-down alone: -0.722
- viability fraction, knock-down alone: 0.758

MAPKAPK5
- viability z-score, knock-down alone: 1.16
- viability fraction, knock-down alone: 0.994

CLK3
- viability z-score, knock-down alone: -1.25
- viability fraction, knock-down alone: 0.692

FCSK
- viability z-score, knock-down alone: 0.14
- viability fraction, knock-down alone: 0.866

MAPK7
- viability z-score, knock-down alone: 0.426
- viability fraction, knock-down alone: 0.902

AXL
- viability z-score, knock-down alone: 0.519
- viability fraction, knock-down alone: 0.914

BRD3
- viability z-score, knock-down alone: 0.519
- viability fraction, knock-down alone: 0.914

GUCY2D
- viability z-score, knock-down alone: -3.07 (active)
- viability fraction, knock-down alone: 0.464

MAP2K1
- viability z-score, knock-down alone: -0.109
- viability fraction, knock-down alone: 0.835

PRP4K
- viability z-score, knock-down alone: 0.746
- viability fraction, knock-down alone: 0.942

Laid out differently: 2 of the entries above.
gene knocked down	viability z-score, knock-down alone	viability fraction, knock-down alone
PMVK	0.651	0.93
DGUOK	-1.64	0.643
